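Viability assay of Plasmodium falciparum sporozoites; the read-out is not stated. The concentration is filed as 10 mM, unlikely as a test dose, so the dose is not known. Direction is inferred from retests: higher values go with lower viability. Strong results were mostly tested again. Size under these conditions: about 34,000 compounds, about 280 of them at 50% or above in at least one test.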

Each number is a percent effect as filed. The controls that fix the scale are not given in the record; negative values are as filed. This is an unselected part of the compounds tested. Two or more numbers in one place are separate tests of the same structure; such repeats can differ widely.

| structure | effect |
|---|---|
| `CC(C)c1nnc2ccc(N3CCC(C(=O)Nc4nccs4)CC3)nn12` | -14.25 |
| `CC/C=C(/C)C(=O)NCc1ccnc(OC)c1` | -4.561 |
| `O=C(O)CN1CCOCC(Cc2ccc(Cl)cc2)C1` (configuration not stated) | 11.55 |
| `CS(=O)(=O)c1ccc(OCCCN2CCc3cncnc3C2)cc1` | 10.26 |
| `Cc1nc(CCN)cc(N2CCCN(C(=O)c3ccco3)CC2)n1` | -11.32 |
| `COc1cccc(Nc2nc(-c3ccncc3)nc3c2CNCC3)c1.Cl` | 6.202 |
| `Cc1ccc(NCc2cncc3c2CCN(Cc2ccccn2)C3)nn1.Cl.Cl` | -5.415 |
| `CCc1nc(C2CCCN2C(=O)Cc2cccs2)no1` (configuration not stated) | -8.805 |
| `CC(C)Oc1ncccc1CNC(=O)N1CCC(n2cccc2)CC1` | 7.202 |
| `Cc1ccc(C(=O)N2CCC(O)(CN3CCc4ccccc4C3)C2)s1` (configuration not stated) | 1.506 |
| `O=C1CCC(=O)N1c1nn(Cc2cccc(F)c2)cc1Cl` | 2.392 |
| `O=C(Cc1ccsc1)N1CCCCC1c1ccn2ccnc2n1` (configuration not stated) | 9.86 |
| `CCCC1CN(CCOc2ccccc2)C(=O)c2cccnc2O1` (configuration not stated) | -26.16 |
| `Oc1cc(C2CCCN(Cc3cccs3)C2)nc(-c2ccccn2)n1` (configuration not stated) | 4.556 |
| `CN(C)c1cc2c(nn1)CCN(C(=O)C1CCc3ccccc31)C2` (configuration not stated) | 4.852 |
| `CCCn1nc2c(cc1=O)CN(c1ncnc3ccsc13)CC2` | 0.1304 |
| `c1cc(CN2CCOCC3(CCN(C4CCOCC4)C3)C2)ccn1` (configuration not stated) | 6.326 |
| `O=C(NCC1CC1)Nc1cccc(N2CCN(CC3CC3)CC2)c1` | -7.612 |
| `[H][C@]12CCCC(=O)N[C@@]1(C)CCCCN2C(=O)c1ccccn1` | 4.65 |
| `CN(CC(=O)N1CCN(c2ccccc2F)CC1)c1cnccn1` | 7.769 |
| `c1cnn(-c2ccc(CN3CCCC(Cn4cncn4)C3)cc2)c1` (configuration not stated) | 4.502 |
| `CN(C)c1ccc(C(=O)N2CCC(c3n[nH]c(C4CC4)n3)CC2)cc1` | -3.634 |
| `O=C(CCNC(=O)c1ccoc1)Nc1c(F)cccc1F` | -13.41 |
| `Cc1nc(N2CCCN(C(=O)c3ccsc3)CC2)c2cnn(C)c2n1` | 10.96 |
| `Cc1cc(C)nc(N(C)CCn2ccnc2C)n1` | 0.74 |
| `CCOCC1CN(C(=O)c2cccc(C)n2)Cc2cnn(C)c21` (configuration not stated) | -5.565 |
| `Cn1ccnc1CCNS(=O)(=O)c1cccnc1` | -0.355 |
| `O=C(O)C(F)(F)F.O=C1N(CC2CC2)CCC12CCN(c1ncccn1)CC2` | 1.671 |
| `Cc1ccc2c(n1)N(Cc1cccnc1)CCN(C(=O)C1CCC1)C2.O=C(O)C(F)(F)F.O=C(O)C(F)(F)F` | -0.5593 |
| `COc1ccccc1NC(=O)c1ccc(C)n1C` | -7.418 |
| `Cn1cc(CN2CCc3onc(C(=O)Nc4cccnc4)c3C2)cn1` | 5.565 |
| `O=C(O)C(F)(F)F.O=C(O)C(F)(F)F.O=C(O)C(F)(F)F.[H][C@]12C[C@@H](Cn3cccn3)N(C)[C@@]1([H])CCN(Cc1cccs1)C2` | 1.164 |
| `O[C@H]1CN(Cc2ccnc(N3CCCC3)n2)CC[C@@]12CCCO2` | 4.54 |
| `CC(C)Cn1ccc2c(NC(=O)c3n[nH]c4c3CCC4)cccc21` | -15.94 & -7.071 & -16.03 |
| `[H][C@@]12CN(C(=O)c3ccncc3)C[C@]1([H])OCCN2C(C)C` | -12.96 |
| `COc1ccccc1CC(C)N(C)S(C)(=O)=O` (configuration not stated) | -0.7684 |
| `CN(C(=O)c1ccco1)c1nc2c(s1)CCCC2` | -29.6 & -51.73 |
| `Cc1nc(C)c(CC(=O)Nc2nc(C)c(C)s2)c(=O)[nH]1` | -12.86 |
| `CC(C)C(Sc1nnnn1-c1ccccc1)C(=O)NCc1cccnc1` (configuration not stated) | 2.944 |
| `NC(=O)CN1CCC2(CC1)C[C@@H](O)[C@H](c1ccccc1)NC2=O` | 7.51 |
| `Cc1cc(C(=O)NC2CCc3c(ccc(=O)n3CC3CC3)C2)no1` (configuration not stated) | 2.08 |
| `CN1CCN(Cc2ccc(-c3ccc(C(N)=O)cc3)nc2)CC1` | -29.68 & -21.28 |
| `Cc1cc(C)nc(N2CCN(C(=O)c3cc(Cl)c[nH]3)CC2)n1` | -15.62 |
| `Cn1cc(C2CC(=O)NC23CCN(Cc2nccs2)CC3)cn1` (configuration not stated) | -14.5 |
| `CC(C)Cc1noc(CN2CCN(CCOc3ccc(Cl)cc3)CC2)n1` | 5.936 |
| `O=C(O)C(F)(F)F.O=S(=O)(c1cccs1)N1CCCn2cnc(CN3CCCC3)c2C1` | 3.355 |
| `O=C(O)C(F)(F)F.[H][C@@]12CCN(C(=O)Cc3ccccc3)[C@@]1([H])CC(=O)N2Cc1cccnc1` | 10.07 |
| `CC(C)(C)NC(=O)C1CSCN1S(=O)(=O)c1ccc(F)cc1` (configuration not stated) | -0.4773 |
| `[H][C@]12CC[C@](O)(c3ccc(F)cc3)[C@@]1([H])CN(C(=O)c1cc(C3CC3)on1)C2` | 2.438 |
| `[H][C@@]12CN(C(=O)c3cccn3C)C[C@]1([H])C(=O)N(CC(C)C)C2` | 8.603 |
| `Cc1ccc(F)cc1S(=O)(=O)NCc1cccnc1N(C)C` | -11.38 |
| `CS(=O)(=O)N[C@@H]1CCN(Cc2cccnc2)[C@H]1Cc1ccccc1.O=C(O)C(F)(F)F.O=C(O)C(F)(F)F` | -1.684 |
| `COCC1Cn2nnc(-c3cnn(C)c3)c2CN1Cc1ccc(C)s1.O=C(O)C(F)(F)F` (configuration not stated) | -21.65 |
| `CCN1CCCC(CN2CCn3nc(CNC(=O)N(C)C)cc3C2)C1` (configuration not stated) | -9.035 |

Once more, the final 4:

structure,effect
Cc1ccc(F)cc1S(=O)(=O)NCc1cccnc1N(C)C,-11.38
CS(=O)(=O)N[C@@H]1CCN(Cc2cccnc2)[C@H]1Cc1ccccc1.O=C(O)C(F)(F)F.O=C(O)C(F)(F)F,-1.684
COCC1Cn2nnc(-c3cnn(C)c3)c2CN1Cc1ccc(C)s1.O=C(O)C(F)(F)F (configuration not stated),-21.65
CCN1CCCC(CN2CCn3nc(CNC(=O)N(C)C)cc3C2)C1 (configuration not stated),-9.035

Measurements from “University of Dundee, Small-Polar-MMV Screening Library” (2021), ChEMBL document CHEMBL3988442.